# The supplement of paper PMC3334620
# Whole data set: some 33,000 sequences, median “E-score (-0.5 to 0.5)” near -0.015, cut for the highest 2% near 0.3. This is one part of the list.
# Biological target: T1, Abf1 (UniProt P14164)
# T1 sequence: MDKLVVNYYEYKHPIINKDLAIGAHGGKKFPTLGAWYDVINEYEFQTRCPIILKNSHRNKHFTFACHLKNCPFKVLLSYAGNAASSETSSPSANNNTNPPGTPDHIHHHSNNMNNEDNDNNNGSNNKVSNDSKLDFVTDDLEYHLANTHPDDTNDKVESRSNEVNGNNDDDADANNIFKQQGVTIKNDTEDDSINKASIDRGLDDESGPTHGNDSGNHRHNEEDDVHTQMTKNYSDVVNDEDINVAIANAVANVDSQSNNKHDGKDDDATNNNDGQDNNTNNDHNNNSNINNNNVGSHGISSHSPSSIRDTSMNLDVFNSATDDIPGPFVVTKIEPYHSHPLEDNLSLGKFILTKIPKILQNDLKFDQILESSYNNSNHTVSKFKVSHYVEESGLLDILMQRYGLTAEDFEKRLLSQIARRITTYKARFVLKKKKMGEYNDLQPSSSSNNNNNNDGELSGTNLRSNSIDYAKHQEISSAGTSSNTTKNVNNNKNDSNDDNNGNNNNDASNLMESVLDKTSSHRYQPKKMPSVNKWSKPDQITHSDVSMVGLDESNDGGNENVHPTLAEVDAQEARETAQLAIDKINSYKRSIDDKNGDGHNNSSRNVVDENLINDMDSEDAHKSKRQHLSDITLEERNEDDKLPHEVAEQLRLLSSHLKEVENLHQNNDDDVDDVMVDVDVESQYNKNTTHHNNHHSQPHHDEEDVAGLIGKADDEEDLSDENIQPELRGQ
# Test: PBM E-score (8-mer binding enrichment) (E-score (-0.5 to 0.5)); higher = stronger / more preferred TF binding
# Conditions: protein concentration: 200 nM; construct: GST-full length
# Summary of the method: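 The E-score, a modified Wilcoxon-Mann-Whitney statistic, was computed by the Universal PBM Analysis Suite for every ungapped eight-base word pooled with its reverse complement. Scans behind it were normalised with masliner after bound GST-tagged yeast transcription factors were detected with fluorescent anti-GST. The proteins, at about 100-200 nM, had been applied to universal all-10-mer Agilent arrays made double-stranded by primer extension.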
row,Sequence,PBM E-score
1,CACACTGA,-0.0245
2,AGATGTGG,-0.173
3,AGCATGAC,-0.0121
4,CTGAGTCC,-0.145
5,CTTGTCAC,0.357
6,CGTGGGTA,0.0345
7,GAAAGGGC,-0.17
8,AAGACAAG,0.0955
9,GCAAGTAC,-0.0914
10,AATCGATC,-0.0213
11,GCAAGGCC,-0.415
12,CGCTAACG,0.243
13,TTCTCCAA,-0.0244
14,AATTGTTC,0.181
15,TAGTCTAA,-0.183
16,CCGAGCGC,-0.144
17,ATATCCAA,0.149
18,CCTAAACA,-0.224
19,AGATGTAA,0.0924
20,CCCCTGAG,-0.24
21,CATACAGG,-0.0965
22,ATATCAAG,0.148

# Part of the list above, tab-delimited:
row	Sequence	PBM E-score
19	AGATGTAA	0.0924
20	CCCCTGAG	-0.24

# Later entries.

row,Sequence,PBM E-score
1,ATAAAGCA,0.112
2,CGGTCCAA,-0.106
3,ACTGAGGG,-0.184
4,CTATCATC,0.151
5,CGTGATCA,0.379
6,AGGAACTA,0.0321
7,ATGCCAGG,-0.254
8,ATAGGAAG,-0.0411
9,TCCACGGA,0.163
10,ATATGCCC,-0.0568
11,AATCGTTA,0.177
12,GGCGCTGA,-0.0497
13,ACATGTCG,0.0418
14,ATCATGGC,0.12
15,ACTATGGG,-0.21
16,ACTTGGTC,-0.00376
17,CCGCCACG,-0.00933
18,CACCGTTC,0.256
19,GTTTTCAA,0.118
20,GGAGCATA,0.0153
21,AAGCATAC,-0.017
22,ACTGCCAC,-0.0933

row,Sequence,PBM E-score
1,AGTCGTCC,0.142
2,AAAATGCG,-0.0811
3,CAAGGCGC,-0.14
4,ACTGAGCT,-0.153
5,CTGAGATA,0.126
6,AAAGACTT,-0.0275
7,GTCAATGA,-0.0247
8,GGGAAAGA,-0.112
9,GGGTGCAA,-0.171
10,TAAAGATA,0.22
11,TAGTGCCA,-0.05
12,ACGCTAGA,-0.233
13,ACCGAGGA,-0.112
14,CTTCACTA,0.0206
15,TATCCTAA,0.116
16,AAGCAGTC,-0.165
17,ACACCGGC,-0.145
18,CGACTGTA,-0.0739
19,AGTATGTA,-0.2
20,TAGTAAAA,0.0887
21,ATCAAGTA,0.101
22,ACAATCTG,-0.0534

row,Sequence,PBM E-score
1,CCATACGA,0.283
2,ATACCTAC,0.209
3,GAATTGCA,-0.13
4,CCAGCTCC,-0.268
5,AGACTGCG,-0.178
6,ACTCGAAC,0.0108
7,GATGACCC,0.189
8,AAGTTTAC,-0.0254
9,CTATGGAG,-0.268
10,TATTCTGA,0.0481
11,AGACTGGG,-0.198
12,ACACCGGG,-0.16
13,ATAGTTTA,0.0147
14,CTAGACGA,0.141
15,GCTTGAGA,-0.11
16,AGTACGGC,0.224
17,CTCCGATA,-0.223
18,AGTTGTAA,-0.0354
19,ATTTTATA,0.247
20,ACTAGCAC,-0.125

# Pulled one by one from the list above, 3 records:
row,Sequence,PBM E-score
20,GGAGCATA,0.0153
16,CCGAGCGC,-0.144
11,AGACTGGG,-0.198
